Experimental data from patent US20210267978A1, “NANOPARTICLE FORMULATIONS OF IKE AND METHODS OF USE THEREOF” (The Trustees of Columbia University in the City of New York, priority 2018, published 2021).
At least one compound was matched to its structure with a doubt left.

Tested on: SUDHL-6 cells
Experiment: Free fatty acid cell survival test with or without IKE (CellTiter-Glo)
Assay type: cell-based
Details: 100 μM, 24 hours
Excerpt: Relative Area Under Curve (AUC) to DMSO cotreatment was used to indicate the sensitization or protection effect of free fatty acids to IKE-induced ferroptosis.

With `CC/C=C\C/C=C\C/C=C\C/C=C\C/C=C\CCCC(=O)O` [eicosapentaenoic acid] the “toxicity of free fatty acid to cells” value was “toxic to cells”.
